Reference: patent US20250325677A1, “STAT6 DEGRADERS” (Gilead Sciences, Inc., priority 2024, published 2025)

Chains of the proteins cited; added tags and fusions are not shown.
UniProt P42226, whole entry: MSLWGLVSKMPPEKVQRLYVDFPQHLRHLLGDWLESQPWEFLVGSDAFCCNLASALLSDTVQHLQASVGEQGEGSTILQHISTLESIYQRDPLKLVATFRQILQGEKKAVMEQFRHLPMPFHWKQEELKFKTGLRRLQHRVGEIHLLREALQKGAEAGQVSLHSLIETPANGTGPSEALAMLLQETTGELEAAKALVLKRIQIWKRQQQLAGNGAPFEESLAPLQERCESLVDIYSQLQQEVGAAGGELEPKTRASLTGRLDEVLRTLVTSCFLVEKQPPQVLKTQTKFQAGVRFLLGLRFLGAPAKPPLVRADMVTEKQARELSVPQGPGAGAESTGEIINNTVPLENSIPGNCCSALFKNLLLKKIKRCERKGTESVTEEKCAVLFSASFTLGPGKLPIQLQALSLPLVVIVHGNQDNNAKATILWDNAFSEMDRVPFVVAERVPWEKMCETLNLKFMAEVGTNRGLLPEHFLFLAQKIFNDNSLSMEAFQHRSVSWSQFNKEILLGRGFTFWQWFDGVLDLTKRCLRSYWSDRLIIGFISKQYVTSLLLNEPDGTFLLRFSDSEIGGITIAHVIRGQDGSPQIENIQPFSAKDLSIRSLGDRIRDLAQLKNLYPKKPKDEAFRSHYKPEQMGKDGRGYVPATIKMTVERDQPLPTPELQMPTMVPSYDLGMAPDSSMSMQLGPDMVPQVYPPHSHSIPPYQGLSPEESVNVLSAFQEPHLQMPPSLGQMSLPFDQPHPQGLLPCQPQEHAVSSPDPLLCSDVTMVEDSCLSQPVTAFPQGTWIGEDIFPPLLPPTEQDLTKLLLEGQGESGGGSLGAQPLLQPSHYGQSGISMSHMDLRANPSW

Target: STAT6 (Homo sapiens (Human), UniProt P42226)
Assay: STAT6 degrader assay (HiBiT, HeLa LgBiT clone 4.14)
Format: cell-based
Conditions: read-out: STAT6 degradation DC50; HeLa LgBiT clone 4.14, 4-24 h; geometric mean; given for compounds with >80% Emax
Method: This was a HiBit based assay. A HeLa cell line stably transfected with a small protein, LgBit (Large Bit) was obtained from Promega. These cells express endogenous STAT6. A small 11 amino acid gene sequence (HiBiT) was inserted in the STAT6 gene using CRISPR technology. Once STAT6 protein is expressed in the cells, the HiBiT sequence will bind the LgBit in the cells resulting in a functional NanoBiT protein, giving a luminescent tag to STAT6, see FIG. 2.
Single cell clones were prepared and the clone 4.14 was selected for the assay based on that clone showing high luminescence, high STAT6 phosphorylation upon stimulation with IL-4, and inhibition of luminescence when cells were treated with STAT6 siRNA.
HeLa LgBiT clone 4.14 cells were suspended in DMEM with 10% FCS, 1% Pen/Strep, Na-pyrovate and Hygromycin B, at a concentration of 1.25*105 cells pr mL. 5000 cells were added pr well of a 384 well plate and 20 nL of compound was added by Echo® liquid handler. NN6394A (terfenadine, a toxic compound) was added to control wells at 50 μM concentration to establish the assay window. In these wells the cells are dead which equals 100% degradation of STAT6. […]
The luminescence in the wells as a measure of non-degraded STAT6 was measured in a plate reader (BMG Pherastar FSX). The measured DC50 (in nM) was determined. […]

CNc1ccc(-c2ccnc3c2cc([C@H](C)N2CC=C(c4c(C)cc(C(=O)N5CCC(CN6CCN(Cc7ccc8c(c7)n(C7CC7)c(=O)n8C7CCC(=O)NC7=O)C[C@@H]6C)CC5)cc4F)CC2)n3C)cn1 (stereo partly shown)
DC50: 1.5 nM

The structures given here were assigned with low confidence; some may be wrong.
